Data as given in patent publication US20240390512A1, “METHODS OF TREATING CHEMOTHERAPY-RESISTANT CANCER WITH AN ANTIBODY-DRUG CONJUGATE” (DAIICHI SANKYO COMPANY, LIMITED, priority 2021, published 2024).
Results are given in words; binding and its absence hold for the method and conditions named. Some binding calls cover weakened binding; strength is not graded here.

T1: EC1 deletion mutant of human CDH6, on cells (human) (UniProt P55285)
T1 sequence: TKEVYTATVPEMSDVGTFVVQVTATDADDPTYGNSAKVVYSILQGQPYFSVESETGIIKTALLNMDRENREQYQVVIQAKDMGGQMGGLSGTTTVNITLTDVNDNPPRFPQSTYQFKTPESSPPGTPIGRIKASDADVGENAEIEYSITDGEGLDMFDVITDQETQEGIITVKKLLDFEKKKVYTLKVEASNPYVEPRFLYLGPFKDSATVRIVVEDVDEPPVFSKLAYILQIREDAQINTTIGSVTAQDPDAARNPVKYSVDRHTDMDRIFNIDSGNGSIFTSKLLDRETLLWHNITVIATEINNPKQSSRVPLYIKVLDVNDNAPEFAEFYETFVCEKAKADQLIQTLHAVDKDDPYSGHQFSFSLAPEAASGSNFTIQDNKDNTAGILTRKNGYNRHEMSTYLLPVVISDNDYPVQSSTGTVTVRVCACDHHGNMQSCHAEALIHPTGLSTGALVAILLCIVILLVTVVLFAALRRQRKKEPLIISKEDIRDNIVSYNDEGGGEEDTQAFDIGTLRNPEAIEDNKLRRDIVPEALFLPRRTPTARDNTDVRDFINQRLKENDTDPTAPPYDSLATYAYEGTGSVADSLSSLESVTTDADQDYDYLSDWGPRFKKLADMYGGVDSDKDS

T2: EC2 deletion mutant of human CDH6, on cells (human) (UniProt P55285)
T2 sequence: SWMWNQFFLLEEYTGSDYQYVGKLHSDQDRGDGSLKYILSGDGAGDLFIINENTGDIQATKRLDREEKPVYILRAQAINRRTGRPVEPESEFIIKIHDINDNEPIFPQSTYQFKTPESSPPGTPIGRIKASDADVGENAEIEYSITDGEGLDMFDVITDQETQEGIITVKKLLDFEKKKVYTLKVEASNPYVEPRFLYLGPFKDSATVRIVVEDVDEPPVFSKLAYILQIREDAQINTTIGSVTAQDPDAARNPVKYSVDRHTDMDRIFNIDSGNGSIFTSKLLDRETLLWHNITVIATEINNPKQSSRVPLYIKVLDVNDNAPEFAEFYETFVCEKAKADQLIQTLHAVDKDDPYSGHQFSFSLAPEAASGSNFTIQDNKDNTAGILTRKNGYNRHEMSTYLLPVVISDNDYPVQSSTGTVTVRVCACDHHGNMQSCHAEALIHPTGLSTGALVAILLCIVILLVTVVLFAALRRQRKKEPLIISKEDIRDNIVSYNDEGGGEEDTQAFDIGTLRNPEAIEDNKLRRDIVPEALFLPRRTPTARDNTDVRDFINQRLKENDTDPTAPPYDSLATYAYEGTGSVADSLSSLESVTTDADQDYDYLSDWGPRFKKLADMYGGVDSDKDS

T3: EC4 deletion mutant of human CDH6, on cells (human) (UniProt P55285)
T3 sequence: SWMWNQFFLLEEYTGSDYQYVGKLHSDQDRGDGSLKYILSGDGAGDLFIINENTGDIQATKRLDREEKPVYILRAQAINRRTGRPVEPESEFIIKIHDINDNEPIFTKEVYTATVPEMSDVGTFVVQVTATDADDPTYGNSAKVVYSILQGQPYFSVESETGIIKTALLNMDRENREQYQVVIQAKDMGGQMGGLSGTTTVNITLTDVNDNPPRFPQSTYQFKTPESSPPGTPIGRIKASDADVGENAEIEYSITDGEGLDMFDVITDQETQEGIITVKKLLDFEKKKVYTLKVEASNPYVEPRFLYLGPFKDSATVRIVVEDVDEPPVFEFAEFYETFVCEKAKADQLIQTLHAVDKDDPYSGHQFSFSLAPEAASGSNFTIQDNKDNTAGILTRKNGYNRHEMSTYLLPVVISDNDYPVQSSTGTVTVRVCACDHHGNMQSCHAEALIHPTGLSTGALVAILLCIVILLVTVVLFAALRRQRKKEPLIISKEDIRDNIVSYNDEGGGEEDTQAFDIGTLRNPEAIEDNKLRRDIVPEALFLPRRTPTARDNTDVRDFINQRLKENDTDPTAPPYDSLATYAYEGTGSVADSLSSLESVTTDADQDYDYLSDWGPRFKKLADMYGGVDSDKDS

T4: EC5 deletion mutant of human CDH6, on cells (human) (UniProt P55285)
T4 sequence: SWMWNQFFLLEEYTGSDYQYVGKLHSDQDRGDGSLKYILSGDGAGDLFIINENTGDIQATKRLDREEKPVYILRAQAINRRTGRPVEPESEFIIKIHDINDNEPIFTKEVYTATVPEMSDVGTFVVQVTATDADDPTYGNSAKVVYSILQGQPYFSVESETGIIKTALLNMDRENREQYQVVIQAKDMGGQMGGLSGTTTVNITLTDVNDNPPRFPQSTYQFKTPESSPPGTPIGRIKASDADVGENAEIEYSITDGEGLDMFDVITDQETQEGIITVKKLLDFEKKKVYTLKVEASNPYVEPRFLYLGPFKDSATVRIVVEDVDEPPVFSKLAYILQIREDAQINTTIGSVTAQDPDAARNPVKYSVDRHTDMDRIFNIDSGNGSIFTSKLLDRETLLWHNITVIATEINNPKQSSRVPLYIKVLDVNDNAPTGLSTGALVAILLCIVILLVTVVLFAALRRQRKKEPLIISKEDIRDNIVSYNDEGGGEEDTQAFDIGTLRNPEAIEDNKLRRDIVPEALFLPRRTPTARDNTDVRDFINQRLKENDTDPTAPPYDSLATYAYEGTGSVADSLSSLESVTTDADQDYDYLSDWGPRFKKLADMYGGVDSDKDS

T5: EC3 deletion mutant of human CDH6, on cells (human) (UniProt P55285)
T5 sequence: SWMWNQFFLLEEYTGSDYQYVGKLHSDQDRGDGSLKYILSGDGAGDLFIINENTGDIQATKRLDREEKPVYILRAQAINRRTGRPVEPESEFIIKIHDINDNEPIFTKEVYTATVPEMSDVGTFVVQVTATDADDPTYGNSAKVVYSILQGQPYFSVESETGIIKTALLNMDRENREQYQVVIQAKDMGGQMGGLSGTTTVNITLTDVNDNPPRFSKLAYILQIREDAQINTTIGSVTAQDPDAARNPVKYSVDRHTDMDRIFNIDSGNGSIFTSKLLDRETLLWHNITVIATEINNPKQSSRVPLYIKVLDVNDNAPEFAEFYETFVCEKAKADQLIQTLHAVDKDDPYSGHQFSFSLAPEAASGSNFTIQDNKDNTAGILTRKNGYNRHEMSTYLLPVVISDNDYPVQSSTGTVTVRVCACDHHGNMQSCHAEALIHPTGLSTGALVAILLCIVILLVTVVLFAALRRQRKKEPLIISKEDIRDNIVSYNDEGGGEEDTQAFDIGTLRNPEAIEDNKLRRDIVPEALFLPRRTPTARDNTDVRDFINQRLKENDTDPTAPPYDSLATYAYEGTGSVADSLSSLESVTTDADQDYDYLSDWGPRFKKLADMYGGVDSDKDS


Columns and labels:
[1] = biological target: T1, EC1 deletion mutant of human CDH6, on cells (human); assay: flow cytometry, transfected 293α cells
[2] = biological target: T2, EC2 deletion mutant of human CDH6, on cells (human); assay: flow cytometry, transfected 293α cells
[3] = biological target: T3, EC4 deletion mutant of human CDH6, on cells (human); assay: flow cytometry, transfected 293α cells
[4] = biological target: T4, EC5 deletion mutant of human CDH6, on cells (human); assay: flow cytometry, transfected 293α cells
[5] = biological target: T1, EC1 deletion mutant of human CDH6, on cells (human); assay: flow cytometry; 293α cells transfected with EC1-deleted hCDH6 (open line) against untransfected 293α cells (shaded); APC anti-human IgG goat F(ab')2; antibody concentration not given
[6] = biological target: T2, EC2 deletion mutant of human CDH6, on cells (human); assay: flow cytometry; 293α cells transfected with EC2-deleted hCDH6 (open line) against untransfected 293α cells (shaded); APC anti-human IgG goat F(ab')2; antibody concentration not given
[7] = biological target: T3, EC4 deletion mutant of human CDH6, on cells (human); assay: flow cytometry; 293α cells transfected with EC4-deleted hCDH6 (open line) against untransfected 293α cells (shaded); APC anti-human IgG goat F(ab')2; antibody concentration not given
[8] = biological target: T4, EC5 deletion mutant of human CDH6, on cells (human); assay: flow cytometry; 293α cells transfected with EC5-deleted hCDH6 (open line) against untransfected 293α cells (shaded); APC anti-human IgG goat F(ab')2; antibody concentration not given
[9] = biological target: T5, EC3 deletion mutant of human CDH6, on cells (human); assay: flow cytometry, transfected 293α cells
[10] = biological target: T5, EC3 deletion mutant of human CDH6, on cells (human); assay: flow cytometry; 293α cells transfected with EC3-deleted hCDH6 (open line) against untransfected 293α cells (shaded); APC anti-human IgG goat F(ab')2; antibody concentration not given

binding [1]	binding [2]	binding [3]	binding [4]	binding [5]	binding [6]	binding [7]	binding [8]	binding [9]	binding [10]	Binder
binds	binds	binds	binds	binds	binds	binds	binds	–	–	humanized anti-CDH6 antibody H02L03 (antibody, human IgG1, kappa, V domains shown) VH: EVQLVQSGAEVKKPGASVKVSCKASGYTFTRNFMHWVRQAPGQGLEWMGWIYPGDGETEYNQKFQGRVTITADRSTSTAYMELSSLRSEDTAVYFCARGVYGGFAGGYFDFWGQGTLVTVSS VL: DIQMTQSPSSLSASVGDRVTITCKASQNIYKNLAWYQQKLGEGPKLLIYDANTLQTGVPSRFSGSGSGTDFTLTISSLQPEDFATYYCQQYYSGWAFGQGTKVEIKR
binds	binds	binds	binds	binds	binds	binds	binds	–	–	humanized anti-CDH6 antibody H04L02 (antibody, human IgG1, kappa, V domains shown) VH: QVQLVQSGAEVKKPGASVKVSCKASGYTFTRNFMHWIRQAPGQGLEWMGWIYPGDGETEYAQKFQGRVTLTADRSTSTAYMELSSLRSEDTAVYYCARGVYGGFAGGYFDFWGQGTLVTVSS VL: DIQMTQSPSSLSASVGDRVTITCKASQNIYKNLAWYQQKPGKAPKLLIYDANTLQTGVPSRFSGSGSGSDFTLTISSLQPEDFATYFCQQYYSGWAFGQGTKVEIKR
binds	binds	binds	–	binds	binds	binds	–	binds	binds	anti-CDH6 antibody NOV0712 (antibody, human IgG1, kappa, V domains shown) VH: QVQLLESGGGLVQPGGSLRLSCAASGFTFSSHGMHWVRQAPGKGLEWVSVISGSGSNTGYADSVKGRFTISRDNSKNTLYLQMNSLRAEDTAVYYCARQWGSYAFDSWGQGTLVTVSS VL: DIQMTQSPSSLSASVGDRVTITCRASQSISSYLNWYQQKPGKAPKLLIYAVSTLQSGVPSRFSGSGSGTDFTLTISSLQPEDFATYYCQQSGTFPPTTFGQGTKVEIKR
